Results as given in article PMC7732837.

The chains behind the UniProt entries cited, without tags or fusion partners. Where a name states a change or a piece, a line headed by the entry shows the natural chain unless it says otherwise.
UniProt Q16665: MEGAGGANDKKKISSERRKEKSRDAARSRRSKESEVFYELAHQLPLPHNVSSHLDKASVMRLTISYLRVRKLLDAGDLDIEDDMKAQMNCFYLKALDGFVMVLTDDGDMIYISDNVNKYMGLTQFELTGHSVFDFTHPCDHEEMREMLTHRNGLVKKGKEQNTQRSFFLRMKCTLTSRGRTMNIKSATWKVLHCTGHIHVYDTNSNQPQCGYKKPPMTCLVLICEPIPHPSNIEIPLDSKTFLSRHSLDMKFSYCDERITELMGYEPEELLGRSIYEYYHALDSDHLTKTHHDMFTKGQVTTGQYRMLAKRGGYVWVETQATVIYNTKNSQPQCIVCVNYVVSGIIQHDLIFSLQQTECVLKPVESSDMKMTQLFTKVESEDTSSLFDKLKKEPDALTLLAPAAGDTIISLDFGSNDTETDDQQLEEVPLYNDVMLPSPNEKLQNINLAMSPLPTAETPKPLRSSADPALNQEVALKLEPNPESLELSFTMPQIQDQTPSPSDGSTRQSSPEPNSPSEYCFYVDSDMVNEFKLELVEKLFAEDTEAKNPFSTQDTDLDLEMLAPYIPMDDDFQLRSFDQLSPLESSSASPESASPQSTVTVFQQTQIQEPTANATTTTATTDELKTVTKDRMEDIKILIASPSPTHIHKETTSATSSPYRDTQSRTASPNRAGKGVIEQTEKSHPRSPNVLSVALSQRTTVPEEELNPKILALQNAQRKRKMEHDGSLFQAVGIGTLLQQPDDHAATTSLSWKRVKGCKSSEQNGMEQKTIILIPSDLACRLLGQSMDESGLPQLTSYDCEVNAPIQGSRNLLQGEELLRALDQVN

What was measured:
[1] = molecular target: HIF-1alpha (endogenous HIF-1, CoCl2-treated IMR-90 nuclear extract) (UniProt Q16665); test: EMSA; conditions: 20 mM Hepes pH 7.9, 2 mM MgCl2, 0.1 mM EDTA, 10% glycerol, 2 mM spermidine, 0.5 mM DTT, 30-50 ng salmon-sperm DNA, 2 ug BSA, 20 uL, 30 min on ice, protein in an extract, label: 32P (dATP)
[2] = molecular target: HIF-1alpha (endogenous HIF-1, CoCl2-treated IMR-90 nuclear extract) (UniProt Q16665); test: EMSA with antibody supershift/competition; conditions: 20 mM Hepes pH 7.9, 2 mM MgCl2, 0.1 mM EDTA, 10% glycerol, 2 mM spermidine, 0.5 mM DTT, 30-50 ng salmon-sperm DNA, 2 ug BSA, 20 uL, 30 min on ice, protein in an extract, label: 32P (dATP)

Sequence | binding result ([1]; plus recombinant His-BTG3, binding not affected) | binding result [2] | binding result ([1]; plus recombinant full-length His-BTG3, binding not affected)
CAGTCTGTCCCGACGTGACTTCCTC (double strand) [COX-2 promoter HRE] | binds | binds | –
CAGTGCATACGTGGGCTCCAACAGGTCCTC (double strand) [VEGFA promoter HRE (VEGF II)] | – | binds | binds

For at least one entry, the source does not settle the construct or the ends of the probe. At least one result comes from cells or an extract, where the contact may be indirect.
